Record: PubChem BioAssay AID686938 (Drosophila RNAi Screening Center, 2013)

Aim: 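Fly genes required for calcium entry once internal stores are emptied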 (primary screen)
Cell system: Drosophila S2R+ cells
Reagent: long dsRNA against Drosophila genes, about 0.25 µg dsRNA per well, roughly 10,000 cells
Timing: 5 days of knock-down before the calcium assay
Challenge: thapsigargin (SERCA pump blocker) to empty calcium stores; entry signal taken 4 min after adding it
Measurement: 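Duplicate raw fluo-4 intensities per well from a plate reader, at rest and four minutes after thapsigargin emptied calcium stores; entry-to-rest ratio filled for only some wells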
Direction: calcium entry signal: higher = stronger calcium signal after store depletion; entry to resting ratio: higher = more calcium entry relative to resting level; resting calcium signal: higher = higher resting calcium signal
Call rule: 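Hit if the duplicate-averaged plate z-score for entry over resting signal is under −3; wells with weak total dye signal (Fmax z < −2) or more than 5 off-targets removed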
Meaning of the calls: active = strongly reduced calcium entry; inactive = no strong reduction
The screen tested about 23,000 reagents; below is an unselected part of those with a known target gene and a result. Of all reagents, 75 (0.33%) got an active call. 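Raw plate signals without normalisation; calls rest on plate z-scores that were not deposited; ratio present for only 364 wells.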 Names joined by + are all predicted targets of the reagent. Not stated in the record: the dose of the treatment.

no.	Target gene	PubChem SID	calcium entry signal, replicate 1 (fluorescence units)	calcium entry signal, replicate 2 (fluorescence units)	entry to resting ratio	resting calcium signal, replicate 1 (fluorescence units)	resting calcium signal, replicate 2 (fluorescence units)	call
1	CG14823	SID104189986	4.61e7	2.78e7		3.12e7	1.30e7	inactive
2	CG42824	SID104193022	5.30e7	2.60e7		2.24e7	1.28e7	inactive
3	BI-1	SID104190574	3.31e7	2.12e7		2.40e7	1.03e7	inactive
4	CG30375	SID104186626	4.83e7	3.91e7		2.09e7	1.69e7	inactive
5	ArgRS	SID104199930	3.09e7	2.56e7		1.57e7	1.15e7	inactive
6	CG1910	SID104195192	2.43e7	3.21e7		1.15e7	1.50e7	inactive
7	vg	SID104187507	3.63e7	6.61e7		1.80e7	3.00e7	inactive
8	vg	SID104202065	3.72e7	3.19e7		1.75e7	1.38e7	inactive
9	dgt5	SID104187072	3.55e7	3.73e7		1.67e7	1.83e7	inactive
10	ND-39	SID104191583	4.30e7	5.98e7		1.77e7	3.58e7	inactive
11	stx	SID104198234	3.55e7	4.85e7		1.76e7	2.45e7	inactive
12	stx	SID104198235	4.18e7	6.11e7		1.96e7	2.80e7	inactive
13	stx	SID104202432	3.34e7	2.46e7		1.34e7	1.07e7	inactive
14	CG32276	SID104187819	3.16e7	2.62e7		1.50e7	1.29e7	inactive
15	CG1773	SID104186480	3.00e7	3.38e7		1.30e7	1.64e7	inactive
16	sNPF-R	SID104190628	3.07e7	5.34e7		1.50e7	2.14e7	inactive
17	CG10038	SID104193970	4.01e7	4.76e7		1.56e7	2.16e7	inactive
18	beat-IIIa	SID104181367	2.87e7	4.44e7		1.62e7	2.00e7	inactive
19	beat-IIIa	SID104181369	3.27e7	3.79e7		1.85e7	1.80e7	inactive
20	beat-IIIa	SID104181970	3.68e7	2.31e7		1.71e7	1.13e7	inactive
21	slif	SID104191427	4.44e7	4.87e7		1.99e7	3.50e7	inactive
22	zye	SID104191576	2.30e7	4.23e7		1.14e7	1.83e7	inactive
23	Cyp303a1	SID104183092	5.05e7	3.52e7		2.28e7	1.78e7	inactive
24	CG32572	SID104199317	3.36e7	3.17e7		1.69e7	1.50e7	inactive
25	CG32572	SID104199318	3.64e7	2.84e7		1.88e7	1.41e7	inactive
26	mmm	SID104190000	3.88e7	7.07e7		1.80e7	2.81e7	inactive
27	N	SID104198477	3.51e7	6.11e7	2	1.72e7	2.46e7	inactive
28	CG11029	SID104181911	2.99e7	2.99e7		1.51e7	1.29e7	inactive
29	CG31872	SID104182360	3.34e7	4.16e7		2.07e7	1.95e7	inactive
30	CG31872	SID104182364	3.66e7	4.33e7		1.88e7	1.88e7	inactive
31	CG42322	SID104194904	4.43e7	3.13e7		1.91e7	1.52e7	inactive
32	CG42322	SID104194905	4.75e7	4.65e7		6.97e7	2.13e7	inactive
33	CG42322	SID104194906	4.15e7	5.73e7		6.21e7	2.86e7	inactive
34	Mlf	SID104187264	2.14e7	2.49e7		1.02e7	1.26e7	inactive
35	LeuRS-m	SID104188387	4.80e7	3.86e7		3.33e7	1.60e7	inactive
36	CG31099	SID104194044	3.35e7	3.53e7		1.92e7	1.64e7	inactive
37	klg	SID104193383	5.48e7	3.21e7		2.49e7	1.65e7	inactive
38	klg	SID104196770	5.42e7	5.69e7		2.65e7	2.45e7	inactive
39	Ltn1	SID104190848	2.60e7	3.44e7		1.22e7	2.35e7	inactive
40	Ltn1	SID104190850	3.21e7	5.55e7		1.56e7	2.30e7	inactive
41	CG13299	SID104189765	2.98e7	4.52e7		1.40e7	2.02e7	inactive
42	Bet1	SID104189880	1.61e7	2.81e7		9.75e6	1.45e7	inactive
43	Osi12	SID104191969	3.83e7	2.77e7		1.72e7	1.28e7	inactive
44	NimC1	SID104181671	5.20e7	3.52e7		2.27e7	1.67e7	inactive
45	CG10465	SID104184640	3.19e7	4.13e7		1.81e7	1.81e7	inactive
46	CG6178	SID104195776	2.96e7	3.08e7		1.39e7	1.40e7	inactive
47	CG1927	SID104187938	4.20e7	3.65e7		1.88e7	1.89e7	inactive
48	CG32829	SID104180753	3.16e7	3.89e7		1.77e7	1.96e7	inactive
49	CG32829	SID104202164	2.91e7	3.68e7		1.45e7	1.74e7	inactive
50	CG34169	SID104181371	2.93e7	4.04e7		1.55e7	1.79e7	inactive
51	CG10550	SID104194043	3.02e7	3.09e7		1.34e7	1.48e7	inactive
52	CG6310	SID104190411	2.79e7	3.94e7		1.51e7	1.75e7	inactive
53	CG5388	SID104195581	5.39e7	5.07e7		4.48e7	2.09e7	inactive
54	GstS1	SID104187228	2.38e7	2.60e7		1.01e7	1.23e7	inactive
55	CG4872	SID104199713	3.69e7	3.82e7		1.78e7	1.65e7	inactive
56	Duba	SID104190374	4.07e7	2.52e7		2.71e7	1.11e7	inactive
57	CG1791	SID104197933	4.27e7	3.95e7		1.88e7	1.76e7	inactive
58	tpr	SID104184260	3.32e7			1.76e7		inactive
59	hkb	SID104192169	3.44e7	3.29e7		1.72e7	1.70e7	inactive
60	Mic26-27	SID104195705	2.97e7	2.65e7		1.39e7	1.22e7	inactive
61	nrv3	SID104182889	8.12e7	3.32e7		4.23e7	1.61e7	inactive
62	CG17361	SID104190058	5.14e7	4.53e7		2.19e7	1.94e7	inactive
63	CG11425	SID104191449	3.03e7	5.14e7		1.50e7	2.34e7	inactive
64	CG6966	SID104195948	3.30e7	4.38e7		1.59e7	7.83e7	inactive
65	CG17732	SID104190075	3.55e7	5.01e7		1.64e7	2.27e7	inactive
66	CG43244	SID104185128	5.04e7	4.50e7		2.17e7	1.94e7	inactive
67	sPLA2	SID104185833	5.18e7	4.20e7		2.40e7	1.83e7	inactive
68	CG31068	SID104193612	3.26e7	4.49e7		1.67e7	2.14e7	inactive
69	CR12628 + Mgstl	SID104183494	3.99e7	4.60e7		2.08e7	2.23e7	inactive
70	CR12628 + Mgstl	SID104200360	5.25e7	4.92e7		2.63e7	1.89e7	inactive
71	Abcd3	SID104199280	4.29e7	2.84e7		1.95e7	1.27e7	inactive
72	PGRP-LA	SID104190119	1.48e7	1.97e7		8.76e6	1.04e7	inactive
73	PGRP-LA	SID104190206	1.33e7	2.05e7		8.89e6	1.01e7	inactive
74	CG43123	SID104184841	2.09e7	4.11e7		1.19e7	1.74e7	inactive
75	CG42570	SID104189183	2.18e7	2.79e7		1.07e7	1.36e7	inactive

Look-ups from the list.
Under “calcium entry signal, replicate 1 (fluorescence units)”, CG10550 [SID104194043] shows 3.02e7
Under “resting calcium signal, replicate 1 (fluorescence units)”, CG32572 [SID104199318] reads 1.88e7
For “calcium entry signal, replicate 1 (fluorescence units)”, beat-IIIa [SID104181367] reads 2.87e7
mmm [SID104190000], resting calcium signal, replicate 2 (fluorescence units): 2.81e7
CG4872 [SID104199713], calcium entry signal, replicate 1 (fluorescence units) → 3.69e7
CG32572 [SID104199317], calcium entry signal, replicate 2 (fluorescence units) = 3.17e7
